Our source for the binding values is doi:10.1101/2022.01.26.477835.

In assay [1] the target is T1, Flag-tagged full-length TRPM8 (Flag-TRPM8) (rat), Q8R455. The assay can be described thus: cross-linking. Particulars: remark: other sources report otherwise.
The target of assay [2] is T1, Flag-tagged full-length TRPM8 …. Description: co-IP. Particulars: remark: other sources report otherwise.

These are yes or no findings as the source states them, for the method shown. Binding seen in cells or lysates may run through a third protein. Some results given as binding are weak or reduced against the parent protein; the word gives no strength. Sequences can lack the tags named with a protein.

B1: Flag-tagged full-length TRPM8 (Flag-TRPM8), Q8R455 1-1104 (protein)
chain: MSFEGARLSMRSRRNGTLGSTRTLYSSVSRSTDVSYSESDLVNFIQANFKKRECVFFTRDSKAMESICKCGYAQSQHIEGTQINQNEKWNYKKHTKEFPTDAFGDIQFETLGKKGKYLRLSCDTDSETLYELLTQHWHLKTPNLVISVTGGAKNFALKPRMRKIFSRLIYIAQSKGAWILTGGTHYGLMKYIGEVVRDNTISRNSEENIVAIGIAAWGMVSNRDTLIRNCDDEGHFSAQYIMDDFMRDPLYILDNNHTHLLLVDNGCHGHPTVEAKLRNQLEKYISERTSQDSNYGGKIPIVCFAQGGGRETLKAINTSVKSKIPCVVVEGSGQIADVIASLVEVEDVLTSSMVKEKLVRFLPRTVSRLPEEEIESWIKWLKEILESPHLLTVIKMEEAGDEVVSSAISYALYKAFSTNEQDKDNWNGQLKLLLEWNQLDLASDEIFTNDRRWESADLQEVMFTALIKDRPKFVRLFLENGLNLQKFLTNEVLTELFSTHFSTLVYRNLQIAKNSYNDALLTFVWKLVANFRRSFWKEDRSSREDLDVELHDASLTTRHPLQALFIWAILQNKKELSKVIWEQTKGCTLAALGASKLLKTLAKVKNDINAAGESEELANEYETRAVELFTECYSSDEDLAEQLLVYSCEAWGGSNCLELAVEATDQHFIAQPGVQNFLSKQWYGEISRDTKNWKIILCLFIIPLVGCGLVSFRKKPIDKHKKLLWYYVAFFTSPFVVFSWNVVFYIAFLLLFAYVLLMDFHSVPHTPELILYALVFVLFCDEVRQWYMNGVNYFTDLWNVMDTLGLFYFIAGIVFRLHSSNKSSLYSGRVIFCLDYIIFTLRLIHIFTVSRNLGPKIIMLQRMLIDVFFFLFLFAVWMVAFGVARQGILRQNEQRWRWIFRSVIYEPYLAMFGQVPSDVDSTTYDFSHCTFSGNESKPLCVELDEYNLPRFPEWITIPLVCIYMLSTNILLVNLLVAMFGYTVGIVQENNDQVWKFQRYFLVQEYCNRLNIPFPFVVFAYFYMVVKKCFKCCCKEKNTESSACCFRNEDNETLAWEGVMKENYLVKINTKANDNAEEMRHRFRQLDTKLNDLKGLLKEIANKIK
Take B1: in assay [1], the binding entry is recorded as “binds”.

B2: GFP-tagged wild type TRPM8 (GFP-TRPM8), Q8R455 1-1104 (protein)
chain: B1 chain
For the molecule B2, the binding entry in assay [2] was “binds”.
